As usually defined, the AC50 is the midpoint of the concentration-response curve, whichever way the signal moves. Higher therefore signals activity only at high concentration.

SMILES strings stand for the structures. Some of the results follow. These are further read-outs of the screen, such as a control signal, another cell line or another target. No call is given for them. Compounds called inactive in the main read-out are mostly missing here. Words in brackets tell the shape of the fitted curve; partial curves, single points and poor fits give uncertain potencies.

Results on 64 compounds are retold here after PubChem BioAssay AID2685 (National Center for Advancing Translational Sciences (NCATS), 2010).

The assay is described as follows: qHTS Assay for Lipid Storage Modulators in Drosophila S3 Cells.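 As to cell number change: cells counted by Cell Tracker Red CMTPX staining in the red channel.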 The conditions noted are these: BODIPY lipid droplet fluorescence, 18-24 h; for cell number change: measured here: cell count max response, cells fed with added oleic acid. The essentials:
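Drosophila S3 cells got compounds at several concentrations plus oleic acid (400 uM solution). Laser-scanning cytometry with 488 nm excitation read lipid droplets at 500-530 nm and cells at 575-640 nm. Percent activity was relative to 20 uM Triacsin C.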
(In general: qHTS replaces the single test concentration by a dilution series.)

Where [1] appears, read: measured here: lipid fluorescence (Fed channel) AC50, cells fed with added oleic acid.
The mark [2] stands for this setting: measured here: cell number channel AC50, cells fed with added oleic acid.

As to `COc1cccc(C(=O)Nc2ccc3c(c2)C(=O)NC3=O)c1`, the cell number change was -2.99%. Besides, the AC50 under setting [1] is 29.1 µM [rising, single point].

`Nc1ccc(N=Nc2ccccc2)c2ccccc12`: the cell number change is -69.4%. In addition, the AC50 under setting [2] is 6.51 µM [falling, full curve]. The AC50 under setting [1] was 5.17 µM [falling, full curve].

Consider `N#C/C(=C\c1ccccc1)C(=O)N(c1ccccn1)C1CCCCC1`, for which the cell number change was -33.6%. Also, the AC50 under setting [2] is 23.1 µM [falling, single point]. The AC50 under setting [1] is 10.3 µM [falling, partial curve].

For `O=C(O)CCN1CCc2ccccc2C1c1cccs1` (stereo not drawn), the cell number change was -5.71%. The concentration at half-maximal activity (AC50) under setting [2] is 2.59 µM [rising, partial curve].

On to `O=Cc1ccc(-c2ccc(F)cc2)o1`, for which the cell number change is -40.7%. In addition, under setting [2], the AC50 was 8.2 µM [falling, partial curve].

With `CC(=O)Nc1ccc(OC(=O)c2cc3cc(Br)cc(Br)c3oc2=O)cc1`, the cell number change was -27.2%. The AC50 under setting [2] is 5.8 µM [falling, partial curve].

Consider `COc1ccc2c(c1)c1c3n2CCN(C)C3=NCC1`, for which the cell number change is -12.7%.

As to `COc1ccc(NC2C=CS(=O)(=O)C2)cc1` (stereo not drawn), the cell number change was -5.78%. The AC50 under setting [1] was 1.84 µM [falling, full curve].

For `Cc1ccsc1C(=O)N/N=C/c1ccc2c(c1)OCO2`, the AC50 under setting [1] is 5.17 µM [rising, partial curve].

Turning to `COc1ccc(C2CC(c3ccc(OC)c(OC)c3)=NN2C(=O)c2ccccc2)cc1` (stereo not drawn), the cell number change worked out at 31.5%. The concentration at half-maximal activity (AC50) under setting [2] is 0.731 µM [rising, full curve, poor fit].

In the case of `COc1ccc2nc(N/C(N)=N/C(=S)Nc3ccccc3)nc(C)c2c1`, the cell number change is -22.5%. Under setting [1], the half-maximal activity concentration (AC50) was 20.6 µM [falling, partial curve, poor fit].

Turning to `CCCCc1c(O)nc(N2CCN(Cc3ccccc3)CC2)[nH]c1=O`, the cell number change was determined as 72.9%. The AC50 under setting [2] is 10.3 µM [rising, partial curve]. Further, the AC50 under setting [1] is 6.51 µM [rising, single point].

`CCNS(=O)(=O)c1ccc(Br)c(OC)c1`: under setting [1], the AC50 is 6.51 µM [falling, single point].

Regarding `O=C(CCN1C(=O)C2C3C=CC(C3)C2C1=O)N1CCCCC1` (stereo not drawn), the cell number change is -4.07%. For the same compound, under setting [1], the AC50 is 0.326 µM [falling, full curve].

On to `NS(=O)(=O)c1cccc(NC(=O)CN2CCCc3ccccc32)c1`, for which the cell number change stood at 36.8%. Besides, the AC50 under setting [1] is 29.1 µM [rising, single point].

For `CN1CCC(N(C)C(=O)Cc2ccccc2[N+](=O)[O-])CC1`, the cell number change was determined as 11.7%.

As for `OCCC1CN(Cc2ccc3nsnc3c2)CCN1CCc1ccccc1` (stereo not drawn), the cell number change was 9.76%. Besides, under setting [1], the AC50 was 20.6 µM [rising, single point].

For `CCN(CC)C(=O)CSc1nnc(-c2cnccn2)n1-c1ccccc1`, the cell number change is -20.4%. Besides, the concentration at half-maximal activity (AC50) under setting [1] was 0.731 µM [falling, partial curve, poor fit].

For `N#CCCc1cccc(CCC#N)c1`, the cell number change is 13.3%. Besides, under setting [1], the AC50 is 6.51 µM [rising, single point].

`Cc1nnc(NCCN2CCOCC2)[nH]c1=O`: the cell number change is -120%. Further, the AC50 under setting [2] was 18.4 µM [falling, single point]. In addition, the AC50 under setting [1] is 16.4 µM [falling, partial curve].

Turning to `Nc1c(C(=O)N/N=C/c2ccc(OCc3ccccc3)cc2)cnn1-c1ccccc1`, the cell number change was -42.1%. Further, under setting [2], the AC50 is 29.1 µM [falling, single point]. In addition, under setting [1], the AC50 was 1.84 µM [falling, partial curve, poor fit].

For `COC(=O)C1=C(C)N(C)C(=S)NC1c1ccc(Cl)cc1` (stereo not drawn), the cell number change came out at 3.67%. Moreover, the AC50 under setting [1] was 5.8 µM [rising, single point].

Consider `Oc1cccc(Nc2nc(O)c(/C=C3\C=Nc4ccccc43)s2)c1`, for which the cell number change is -1.08%. Further, the AC50 under setting [1] is 32.6 µM [falling, single point].

On to `Brc1ccc(Nc2nc3ccccc3n3nnnc23)cc1`, for which the cell number change was 53.2%. The AC50 under setting [2] was 4.11 µM [rising, partial curve]. Further, under setting [1], the AC50 is 3.66 µM [rising, single point].

As to `Cn1nc(C(F)(F)F)c2cc(NC(=O)OCC(C)(C)C)sc21`, the cell number change was -23.3%. In addition, the AC50 under setting [1] is 18.4 µM [falling, single point].

As to `COc1ccc(/C=N/Nc2nonc2N)c(OC)c1`, the cell number change turned out to be 32.6%. In addition, under setting [2], the AC50 is 18.4 µM [rising, single point]. In addition, the AC50 under setting [1] was 0.146 µM [rising, full curve].

Regarding `O=C(CSCc1ccc(Cl)cc1)Nc1ccc(O)cc1C(=O)O`, the cell number change is 35.1%. The AC50 under setting [2] is 2.31 µM [rising, partial curve, poor fit].

Consider `CC1CN(C(=O)C2CCCN2S(=O)(=O)c2ccc(Cl)cc2)CC(C)O1` (stereo not drawn), for which the cell number change is 9.07%. The AC50 under setting [1] was 3.66 µM [falling, partial curve, poor fit].

Turning to `O=C(O)CC1NC(=S)N(c2ccccc2)C1=O` (stereo not drawn), the cell number change is -109%. For the same compound, under setting [2], the AC50 was 9.2 µM [falling, partial curve]. Under setting [1], the AC50 is 0.651 µM [falling, single point].

In the case of `C[C@H](NC(=O)c1[nH]cnc1C(=O)Nc1ccon1)c1ccccc1`, the cell number change was found to be 14.6%. Besides, the AC50 under setting [1] was 0.116 µM [rising, full curve, poor fit].

Turning to `C=CCOc1c(Cl)cc(CNCCCN2CCOCC2)cc1OC`, the cell number change is 19.1%. Moreover, the AC50 under setting [1] was 0.58 µM [rising, single point].

Take `CC1C(=O)N2CCCc3cc(NC(=O)C(=O)NCc4cccnc4)cc1c32` (stereo not drawn): the cell number change was determined as 48.5%. Besides, the AC50 under setting [2] is 6.51 µM [rising, partial curve, poor fit].

For `Cc1ccc(CCNC(=O)C2CCN(C(=O)c3sccc3-n3cccc3)CC2)cc1`, the cell number change is 10.5%. Besides, the AC50 under setting [1] is 0.103 µM [falling, full curve, poor fit].

Take `CC(=O)N1CCN(C(=O)c2ccco2)CC1`: the cell number change was 18.1%.

Turning to `O=C(Nc1ccccc1)NN(C(=O)CCl)c1ccccc1`, the cell number change turned out to be 22.2%. Also, the AC50 under setting [1] was 18.4 µM [falling, partial curve, poor fit].

As to `CCC(C)C(NC(=O)c1ccccc1NC(=O)c1ccccc1)C(=O)N1CCOCC1` (stereo not drawn), the cell number change was -23.1%.

For `C=CCn1cc(C(=O)NCc2cccnc2)c(=O)c2cc(S(=O)(=O)N(CC)CC)ccc21`, the cell number change came out at 8.57%. Moreover, the AC50 under setting [2] was 0.00461 µM [rising, full curve]. Also, the AC50 under setting [1] is 0.058 µM [rising, full curve].

`OCCN1CCN(CCCN2c3ccccc3Sc3ccc(Cl)cc32)CC1`: the cell number change was -4.38%. The AC50 under setting [1] is 6.51 µM [falling, full curve, poor fit].

Turning to `CCOC(=O)/C=C/C(=O)Nc1nccs1`, the cell number change stood at 26.5%.

As for `Cc1ccc(-n2ncc3c(N4CCN(c5ccc(F)cc5)CC4)ncnc32)c(C)c1`, the AC50 under setting [2] is 0.651 µM [rising, full curve].

In the case of `CCOC(=O)c1c(NC(=O)Cc2cccs2)sc(C(=O)N2CCCCC2)c1C`, the cell number change was -34.9%. Moreover, the AC50 under setting [2] is 16.4 µM [falling, partial curve]. Under setting [1], the AC50 was 0.651 µM [rising, partial curve].

Turning to `NS(=O)(=O)c1ccc(CCNC(=O)COC(=O)c2nc(Cl)ccc2Cl)cc1`, the cell number change was 27.2%. Further, the AC50 under setting [1] was 1.84 µM [falling, partial curve, poor fit].

As for `Cc1ccc(OCC(=O)NNc2c3ccccc3nc3ccccc23)cc1`, the cell number change is -59%. The AC50 under setting [2] was 25.9 µM [falling, partial curve]. Moreover, the AC50 under setting [1] was 1.64 µM [falling, full curve].

As for `CCCCC(=O)Nc1cccc(NC(=S)NC(=O)C(C)C)c1`, the cell number change was -13.6%. For the same compound, under setting [1], the AC50 was 13 µM [falling, partial curve, poor fit].

Regarding `CSCCC(NC(=O)c1ccccc1)C(=O)O` (stereo not drawn), the cell number change was -15.6%. Further, the AC50 under setting [1] is 0.184 µM [falling, full curve].

With `O=[N+]([O-])c1cccc(-c2c[n+]3c(n2-c2ccccc2)SCC3)c1`, the cell number change was -14.7%. Moreover, the AC50 under setting [1] was 29.1 µM [falling, partial curve, poor fit].

Consider `COC(=O)C1CCN(C(=O)COC(=O)C2CCN(S(=O)(=O)c3ccc(C)c(C)c3)CC2)CC1`, for which the cell number change is -10.5%.

`O=C(NCc1ccco1)c1cc2ccc(O)cc2oc1=O`: the cell number change was found to be 38.5%. Besides, the AC50 under setting [2] was 5.8 µM [rising, partial curve, poor fit].

For the compound `Cc1ccc(C(=O)COC(=O)c2cccc([N+](=O)[O-])c2)s1`, the cell number change was -6.74%.

In the case of `CCCn1c(=O)c(C(=O)N/N=C/c2ccccc2F)c(O)c2ccccc21`, the cell number change was -4.65%.

Turning to `Cc1ccc(C2OC(=O)c3ccccc32)cc1` (stereo not drawn), the cell number change is -13.2%. Moreover, the AC50 under setting [1] is 14.6 µM [rising, partial curve].

In the case of `CN(C)c1ccc2c3c(cccc13)C(=O)N(c1ccccc1)C2=O`, the cell number change is -4.43%. In addition, under setting [1], the AC50 is 29.1 µM [falling, single point].

`O=C(CCCc1cccs1)Nc1nccs1`: the cell number change was 40.9%.

For `CC(C)(C)C(=O)Nc1scc(-c2ccc(-c3ccccc3)cc2)c1C(=O)O`, the cell number change was -29.1%.

Consider `Cc1ccc2nc(SCC(=O)Nc3nnc(SCC(N)=O)s3)[nH]c2c1`, for which the cell number change was found to be 41.7%.

Take `CC1(NC(=O)CCS(=O)(=O)c2ccc(Cl)cc2)CCS(=O)(=O)C1` (stereo not drawn): the cell number change turned out to be 26.6%. For the same compound, the AC50 under setting [1] is 20.6 µM [rising, partial curve].

With `CC(=O)c1sc(NC(=O)CS(=O)(=O)c2ccccc2)nc1-c1ccccc1`, under setting [1], the AC50 is 1.64 µM [falling, partial curve].

Take `Cc1ccccc1C(=O)N1CCC(C(=O)NN2C(=O)NC3(CCCCC3)C2=O)CC1`: the cell number change was 4.15%. Besides, the AC50 under setting [1] is 0.231 µM [falling, full curve].

`CCc1ccc(NC(=O)c2cnccn2)cc1`: the cell number change came to 34%.

For the compound `O=C(OCC(=O)N1CCCCC1)c1ccc2c(c1)C(=O)N(Cc1ccco1)C2=O`, the cell number change is -0.251%. In addition, under setting [1], the AC50 is 29.1 µM [falling, single point].

For `CN(C)c1ccc(/C=C/C(=O)c2cccnc2)cc1`, the cell number change turned out to be 15.1%. The AC50 under setting [1] is 0.82 µM [rising, single point].

Take `O=C1C2C3c4ccccc4C(c4ccccc43)C2C(=O)N1CN1CCOCC1` (stereo not drawn): the cell number change is -9.41%. Under setting [1], the AC50 was 3.26 µM [falling, single point].

For `Cc1onc(-c2ccccc2Cl)c1-c1nc(-c2ccccn2)no1`, the cell number change was -24.2%. Also, under setting [1], the AC50 was 16.4 µM [falling, single point].

Consider `CCN(C(=O)COC(=O)c1ccc2c(c1)OCO2)c1c(N)n(Cc2ccccc2)c(=O)[nH]c1=O`, for which the cell number change came to 11.2%. Also, under setting [1], the half-maximal activity concentration (AC50) was 0.00517 µM [rising, full curve, poor fit].
